Experiment [1] concerns the target T1, CRTR-1 (mouse) (UniProt Q3UNW5).
T1 sequence: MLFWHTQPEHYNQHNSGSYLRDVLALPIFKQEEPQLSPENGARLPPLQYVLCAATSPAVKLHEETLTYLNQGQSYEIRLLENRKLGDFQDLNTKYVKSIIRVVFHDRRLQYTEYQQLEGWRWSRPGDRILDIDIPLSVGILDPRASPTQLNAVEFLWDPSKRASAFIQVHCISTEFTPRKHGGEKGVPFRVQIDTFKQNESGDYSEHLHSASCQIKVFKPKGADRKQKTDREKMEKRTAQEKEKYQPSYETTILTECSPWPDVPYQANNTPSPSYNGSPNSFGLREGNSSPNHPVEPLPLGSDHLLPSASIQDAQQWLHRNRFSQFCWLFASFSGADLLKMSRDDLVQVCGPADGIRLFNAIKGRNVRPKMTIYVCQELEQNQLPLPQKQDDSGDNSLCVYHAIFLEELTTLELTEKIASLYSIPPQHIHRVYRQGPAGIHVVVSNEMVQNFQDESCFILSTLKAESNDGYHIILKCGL
The experiment can be described thus: co-IP; reciprocal: HEK293T co-transfected with CRTR-1 and a FLAG-tagged CP2 family member; whole cell lysate precipitated with anti-CRTR-1 antibody and protein-A agarose, 4°C; blotted with anti-FLAG (Figure 3B).

Experiment [2] has as its target FLAG-NF2d9 (mouse). The experiment can be described thus: co-IP; HEK293T co-transfected with CRTR-1 and a FLAG-tagged CP2 family member; whole cell lysate (50 mM Tris-HCl pH 7.5, 150 mM NaCl, 10% glycerol, 1% Triton X-100, 10 mM EDTA) precipitated with anti-FLAG M2 and protein-A agarose, 4°C; blotted with anti-CRTR-1 (Figure 3A).
Experiment [3] deals with FLAG-NF2d9 (mouse). The experiment can be described thus: native gel or EMSA; nuclear extracts of HEK293T over-expressing CRTR-1 and a CP2 family member, FAM-labelled alpha-globin CP2 response element probe, 4% native polyacrylamide gel, room temperature; heteromer seen as a complex of intermediate mobility on DNA, super-shift with anti-CRTR-1.

Results are given in words; binding and its absence hold for the method and conditions named. Binding calls can cover weak binding; strength is not graded here. For part of these data: Binding seen in cells or lysates may run through a third protein.

Here are results for 2 molecules from article PMC2908540.

FLAG-NF2d9 (mouse): the binding entry in experiment [1] is “binds”.

B1: CRTR-1 (protein, UniProt Q3UNW5 1-479)
chain: T1 sequence
For the molecule B1, the binding entry in experiment [2] and in experiment [3] was “binds” in each case.
